# Measured values reported in the supplement of paper PMC11546906.
# Where a name gives a salt, the structure may show the parent alone. The list shows a part of the results. This data set is noisy: repeats of one test often differ as much as different tests do.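 A screen tested FDA-approved drugs combined with one-eighth-MIC colistin against a clinical mcr-1-positive, multidrug-resistant E. coli isolate, measuring OD600 at 24 h. Controls were untreated bacteria (growth) and broth alone (blank). An OD600 under 0.2 marked a combination as active.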
# Tested on: Escherichia coli 42 (mcr-1-positive clinical isolate)
# Assay: OD600 after 24 h growth with compound plus colistin (absorbance units (OD600)); higher = more bacterial growth (less inhibition)
# Conditions: first compound 25 µM; colistin concentration 0.5 ug/mL; incubation time 24 h; 37 °C
row,SMILES,OD600
1,CC(C[N+](C)(C)C)OC(N)=O (configuration not stated) [Bethanechol chloride] + CCC(C)CCCC(=O)N[C@@H](CCN)C(=O)N[C@H](C(=O)N[C@@H](CCN)C(=O)N[C@H]1CCNC(=O)[C@H]([C@@H](C)O)NC(=O)[C@H](CCN)NC(=O)[C@H](CCN)NC(=O)[C@H](CC(C)C)NC(=O)[C@@H](CC(C)C)NC(=O)[C@H](CCN)NC1=O)[C@@H](C)O [colistin],inactive: 0.852
2,COc1cc(N2CCC(N(C)C)CC2)ccc1Nc1ncc(Cl)c(Nc2ccccc2P(C)(C)=O)n1 + CCC(C)CCCC(=O)N[C@@H](CCN)C(=O)N[C@H](C(=O)N[C@@H](CCN)C(=O)N[C@H]1CCNC(=O)[C@H]([C@@H](C)O)NC(=O)[C@H](CCN)NC(=O)[C@H](CCN)NC(=O)[C@H](CC(C)C)NC(=O)[C@@H](CC(C)C)NC(=O)[C@H](CCN)NC1=O)[C@@H](C)O [colistin],inactive: 1.11
3,N[C@@H](Cc1cc(I)c(Oc2cc(I)c(O)c(I)c2)c(I)c1)C(=O)O [L-Thyroxine] + CCC(C)CCCC(=O)N[C@@H](CCN)C(=O)N[C@H](C(=O)N[C@@H](CCN)C(=O)N[C@H]1CCNC(=O)[C@H]([C@@H](C)O)NC(=O)[C@H](CCN)NC(=O)[C@H](CCN)NC(=O)[C@H](CC(C)C)NC(=O)[C@@H](CC(C)C)NC(=O)[C@H](CCN)NC1=O)[C@@H](C)O [colistin],inactive: 1.14
4,CC(CN1c2ccccc2Sc2ccccc21)N(C)C (configuration not stated) [Promethazine hydrochloride] + CCC(C)CCCC(=O)N[C@@H](CCN)C(=O)N[C@H](C(=O)N[C@@H](CCN)C(=O)N[C@H]1CCNC(=O)[C@H]([C@@H](C)O)NC(=O)[C@H](CCN)NC(=O)[C@H](CCN)NC(=O)[C@H](CC(C)C)NC(=O)[C@@H](CC(C)C)NC(=O)[C@H](CCN)NC1=O)[C@@H](C)O [colistin],inactive: 1.15
5,O=C(CCCN1CC=C(n2c(=O)[nH]c3ccccc32)CC1)c1ccc(F)cc1 [Droperidol] + CCC(C)CCCC(=O)N[C@@H](CCN)C(=O)N[C@H](C(=O)N[C@@H](CCN)C(=O)N[C@H]1CCNC(=O)[C@H]([C@@H](C)O)NC(=O)[C@H](CCN)NC(=O)[C@H](CCN)NC(=O)[C@H](CC(C)C)NC(=O)[C@@H](CC(C)C)NC(=O)[C@H](CCN)NC1=O)[C@@H](C)O [colistin],inactive: 0.99
6,Cc1ncc([N+](=O)[O-])n1CCO [Metronidazole] + CCC(C)CCCC(=O)N[C@@H](CCN)C(=O)N[C@H](C(=O)N[C@@H](CCN)C(=O)N[C@H]1CCNC(=O)[C@H]([C@@H](C)O)NC(=O)[C@H](CCN)NC(=O)[C@H](CCN)NC(=O)[C@H](CC(C)C)NC(=O)[C@@H](CC(C)C)NC(=O)[C@H](CCN)NC1=O)[C@@H](C)O [colistin],inactive: 0.855
7,NCc1ccc(S(N)(=O)=O)cc1 [Mafenide hydrochloride] + CCC(C)CCCC(=O)N[C@@H](CCN)C(=O)N[C@H](C(=O)N[C@@H](CCN)C(=O)N[C@H]1CCNC(=O)[C@H]([C@@H](C)O)NC(=O)[C@H](CCN)NC(=O)[C@H](CCN)NC(=O)[C@H](CC(C)C)NC(=O)[C@@H](CC(C)C)NC(=O)[C@H](CCN)NC1=O)[C@@H](C)O [colistin],inactive: 0.997
8,CSc1ccc2c(c1)N(CCC1CCCCN1C)c1ccccc1S2 (configuration not stated) [Thioridazine hydrochloride] + CCC(C)CCCC(=O)N[C@@H](CCN)C(=O)N[C@H](C(=O)N[C@@H](CCN)C(=O)N[C@H]1CCNC(=O)[C@H]([C@@H](C)O)NC(=O)[C@H](CCN)NC(=O)[C@H](CCN)NC(=O)[C@H](CC(C)C)NC(=O)[C@@H](CC(C)C)NC(=O)[C@H](CCN)NC1=O)[C@@H](C)O [colistin],inactive: 0.885
9,CC[C@H](C)C(=O)O[C@H]1C[C@@H](C)C=C2C=C[C@H](C)[C@H](CC[C@@H]3C[C@@H](O)CC(=O)O3)[C@H]21 [Lovastatin] + CCC(C)CCCC(=O)N[C@@H](CCN)C(=O)N[C@H](C(=O)N[C@@H](CCN)C(=O)N[C@H]1CCNC(=O)[C@H]([C@@H](C)O)NC(=O)[C@H](CCN)NC(=O)[C@H](CCN)NC(=O)[C@H](CC(C)C)NC(=O)[C@@H](CC(C)C)NC(=O)[C@H](CCN)NC1=O)[C@@H](C)O [colistin],inactive: 0.917
10,Nc1nc(=S)c2[nH]cnc2[nH]1 [6-Thioguanine] + CCC(C)CCCC(=O)N[C@@H](CCN)C(=O)N[C@H](C(=O)N[C@@H](CCN)C(=O)N[C@H]1CCNC(=O)[C@H]([C@@H](C)O)NC(=O)[C@H](CCN)NC(=O)[C@H](CCN)NC(=O)[C@H](CC(C)C)NC(=O)[C@@H](CC(C)C)NC(=O)[C@H](CCN)NC1=O)[C@@H](C)O [colistin],inactive: 0.936
11,Nc1cccc2c1CN(C1CCC(=O)NC1=O)C2=O (configuration not stated) [Lenalidomide] + CCC(C)CCCC(=O)N[C@@H](CCN)C(=O)N[C@H](C(=O)N[C@@H](CCN)C(=O)N[C@H]1CCNC(=O)[C@H]([C@@H](C)O)NC(=O)[C@H](CCN)NC(=O)[C@H](CCN)NC(=O)[C@H](CC(C)C)NC(=O)[C@@H](CC(C)C)NC(=O)[C@H](CCN)NC1=O)[C@@H](C)O [colistin],inactive: 1.1
12,"CC1(C)OC(=O)NC1=O [5,5-Dimethyloxazolidine-2,4-dione] + CCC(C)CCCC(=O)N[C@@H](CCN)C(=O)N[C@H](C(=O)N[C@@H](CCN)C(=O)N[C@H]1CCNC(=O)[C@H]([C@@H](C)O)NC(=O)[C@H](CCN)NC(=O)[C@H](CCN)NC(=O)[C@H](CC(C)C)NC(=O)[C@@H](CC(C)C)NC(=O)[C@H](CCN)NC1=O)[C@@H](C)O [colistin]",inactive: 1.1
13,COc1cc2nccc(Oc3ccc(NC(=O)NC4CC4)c(Cl)c3)c2cc1C(N)=O [Lenvatinib] + CCC(C)CCCC(=O)N[C@@H](CCN)C(=O)N[C@H](C(=O)N[C@@H](CCN)C(=O)N[C@H]1CCNC(=O)[C@H]([C@@H](C)O)NC(=O)[C@H](CCN)NC(=O)[C@H](CCN)NC(=O)[C@H](CC(C)C)NC(=O)[C@@H](CC(C)C)NC(=O)[C@H](CCN)NC1=O)[C@@H](C)O [colistin],inactive: 0.624
14,C[N+](C)(C)CC(=O)O [Betaine chloride] + CCC(C)CCCC(=O)N[C@@H](CCN)C(=O)N[C@H](C(=O)N[C@@H](CCN)C(=O)N[C@H]1CCNC(=O)[C@H]([C@@H](C)O)NC(=O)[C@H](CCN)NC(=O)[C@H](CCN)NC(=O)[C@H](CC(C)C)NC(=O)[C@@H](CC(C)C)NC(=O)[C@H](CCN)NC1=O)[C@@H](C)O [colistin],inactive: 0.821
15,NC(=O)NO [Hydroxyurea] + CCC(C)CCCC(=O)N[C@@H](CCN)C(=O)N[C@H](C(=O)N[C@@H](CCN)C(=O)N[C@H]1CCNC(=O)[C@H]([C@@H](C)O)NC(=O)[C@H](CCN)NC(=O)[C@H](CCN)NC(=O)[C@H](CC(C)C)NC(=O)[C@@H](CC(C)C)NC(=O)[C@H](CCN)NC1=O)[C@@H](C)O [colistin],inactive: 1.03
16,C[C@H](CCC(=O)O)[C@H]1CC[C@H]2[C@@H]3[C@H](O)C[C@@H]4C[C@H](O)CC[C@]4(C)[C@H]3C[C@H](O)[C@]12C [Cholic Acid] + CCC(C)CCCC(=O)N[C@@H](CCN)C(=O)N[C@H](C(=O)N[C@@H](CCN)C(=O)N[C@H]1CCNC(=O)[C@H]([C@@H](C)O)NC(=O)[C@H](CCN)NC(=O)[C@H](CCN)NC(=O)[C@H](CC(C)C)NC(=O)[C@@H](CC(C)C)NC(=O)[C@H](CCN)NC1=O)[C@@H](C)O [colistin],inactive: 1.16
17,O=C1NC(=O)C(c2ccccc2)(c2ccccc2)N1 [Phenytoin] + CCC(C)CCCC(=O)N[C@@H](CCN)C(=O)N[C@H](C(=O)N[C@@H](CCN)C(=O)N[C@H]1CCNC(=O)[C@H]([C@@H](C)O)NC(=O)[C@H](CCN)NC(=O)[C@H](CCN)NC(=O)[C@H](CC(C)C)NC(=O)[C@@H](CC(C)C)NC(=O)[C@H](CCN)NC1=O)[C@@H](C)O [colistin],inactive: 1.07

# Two entries from above, bar-delimited:
row | SMILES | OD600
11 | Nc1cccc2c1CN(C1CCC(=O)NC1=O)C2=O (configuration not stated) [Lenalidomide] + CCC(C)CCCC(=O)N[C@@H](CCN)C(=O)N[C@H](C(=O)N[C@@H](CCN)C(=O)N[C@H]1CCNC(=O)[C@H]([C@@H](C)O)NC(=O)[C@H](CCN)NC(=O)[C@H](CCN)NC(=O)[C@H](CC(C)C)NC(=O)[C@@H](CC(C)C)NC(=O)[C@H](CCN)NC1=O)[C@@H](C)O [colistin] | inactive: 1.1
12 | CC1(C)OC(=O)NC1=O [5,5-Dimethyloxazolidine-2,4-dione] + CCC(C)CCCC(=O)N[C@@H](CCN)C(=O)N[C@H](C(=O)N[C@@H](CCN)C(=O)N[C@H]1CCNC(=O)[C@H]([C@@H](C)O)NC(=O)[C@H](CCN)NC(=O)[C@H](CCN)NC(=O)[C@H](CC(C)C)NC(=O)[C@@H](CC(C)C)NC(=O)[C@H](CCN)NC1=O)[C@@H](C)O [colistin] | inactive: 1.1
